# Results as given in the supplement of paper PMC12823440, “Inhibitors supercharge kinase turnover through native proteolytic circuits” (Nature, 2025).
# The chains behind the UniProt entries cited, without tags or fusion partners. Where a name states a change or a piece, a line headed by the entry shows the natural chain unless it says otherwise.
# UniProt Q8IWU2: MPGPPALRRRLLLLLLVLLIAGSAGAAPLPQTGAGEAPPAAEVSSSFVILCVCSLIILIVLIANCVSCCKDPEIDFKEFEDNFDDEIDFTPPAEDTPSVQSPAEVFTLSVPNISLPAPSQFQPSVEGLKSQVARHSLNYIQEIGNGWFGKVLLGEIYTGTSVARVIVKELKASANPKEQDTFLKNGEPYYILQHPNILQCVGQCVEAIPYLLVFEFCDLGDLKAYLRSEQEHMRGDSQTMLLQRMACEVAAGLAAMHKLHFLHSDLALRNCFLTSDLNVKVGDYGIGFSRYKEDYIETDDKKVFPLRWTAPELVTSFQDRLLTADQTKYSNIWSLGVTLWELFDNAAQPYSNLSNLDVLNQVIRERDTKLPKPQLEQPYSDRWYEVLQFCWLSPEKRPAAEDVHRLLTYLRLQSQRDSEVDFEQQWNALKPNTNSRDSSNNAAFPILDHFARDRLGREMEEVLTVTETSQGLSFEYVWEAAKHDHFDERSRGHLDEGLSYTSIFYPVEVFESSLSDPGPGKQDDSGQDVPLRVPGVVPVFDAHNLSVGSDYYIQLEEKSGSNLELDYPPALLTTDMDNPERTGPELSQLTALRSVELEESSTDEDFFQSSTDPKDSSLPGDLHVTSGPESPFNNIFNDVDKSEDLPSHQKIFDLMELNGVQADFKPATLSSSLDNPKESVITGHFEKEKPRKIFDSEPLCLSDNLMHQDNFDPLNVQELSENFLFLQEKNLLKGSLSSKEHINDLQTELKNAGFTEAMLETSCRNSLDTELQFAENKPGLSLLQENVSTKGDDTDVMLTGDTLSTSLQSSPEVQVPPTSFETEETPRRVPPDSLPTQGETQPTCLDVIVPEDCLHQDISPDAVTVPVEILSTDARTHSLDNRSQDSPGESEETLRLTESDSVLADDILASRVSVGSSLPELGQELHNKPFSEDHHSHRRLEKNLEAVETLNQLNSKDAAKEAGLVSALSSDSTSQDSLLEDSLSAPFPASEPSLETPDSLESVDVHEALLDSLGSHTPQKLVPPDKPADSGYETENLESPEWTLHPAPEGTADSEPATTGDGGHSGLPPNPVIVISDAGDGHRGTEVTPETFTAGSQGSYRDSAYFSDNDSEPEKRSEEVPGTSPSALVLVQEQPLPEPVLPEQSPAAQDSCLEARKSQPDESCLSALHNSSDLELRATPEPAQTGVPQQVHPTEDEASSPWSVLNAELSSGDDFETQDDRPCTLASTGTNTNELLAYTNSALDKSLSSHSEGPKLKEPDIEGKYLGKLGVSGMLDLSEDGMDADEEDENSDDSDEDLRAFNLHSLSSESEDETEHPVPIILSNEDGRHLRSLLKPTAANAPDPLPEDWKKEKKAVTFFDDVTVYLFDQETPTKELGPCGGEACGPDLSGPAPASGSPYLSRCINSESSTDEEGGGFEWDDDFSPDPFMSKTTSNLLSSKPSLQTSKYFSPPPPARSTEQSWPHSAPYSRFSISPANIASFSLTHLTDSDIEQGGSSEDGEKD
# Structures can show the parent of a compound that is named as a salt. This is one part of the list. Hit calls seldom repeat between salt and free forms of one compound.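 In K562 cells expressing nanoluciferase-fused kinases, luminescence was recorded at 4 h intervals between 2 and 18 h, normalized as percent of control with DMSO at 100% and a positive control at 0%. A significant (2 sigma) signal drop marks a time point as decreased. The authors' rule for a hit is not shown and takes in more than the number of time points.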
# Target: LMTK2 (UniProt Q8IWU2)
# Assay: number of time points (of 5) at which kinase-Nluc abundance scored as decreased, DMSO-normalised (count); higher = more persistent destabilization
# Settings: K562; 2-18 h
row,Structure (SMILES),number of time points
1,CCOC(=O)c1c(N2CCc3ccc(OC)cc3C2)oc(C=C2C=Nc3ncccc32)c1O (10 µM),0
2,O=C(COc1ccc(Cl)cc1)NC1CCC(NC(=O)COc2ccc(Cl)cc2)CC1 (stereo not drawn) [ISRIB (trans-isomer)] (10 µM),0
3,COc1ccc(CCNCc2ccc(OCc3ccc(Cl)nc3)c(OC)c2)cc1OC [SBE13 (Hydrochloride)] (10 µM),0
4,Cc1cccc(CC(=O)N2CCc3c2ccc(-c2cn(C)c4ncnc(N)c24)c3F)n1 (10 µM),0
5,COc1cc(N2CCC(N3CCN(C)CC3)CC2)ccc1Nc1ncnc(Nc2ccccc2S(=O)(=O)C(C)C)n1 (10 µM),0
6,CC(C)(Oc1ccc(Cl)cc1)C(=O)Nc1ccc(OCc2ccc(C#N)cc2)cc1 [AMPK activator 4] (10 µM),0
7,Cc1cc(N2CCOCC2)ccc1Nc1nc(NC2CCCCC2)c2[nH]cnc2n1 (10 µM),0
8,COC(=O)N1CCN(C2CCC(Nc3nc(Nc4cnn(C)c4)nc4ccc(CC#N)nc34)CC2)CC1 (stereo unspecified) (10 µM),0
9,CN(C)CCn1cc2cc(NC(=O)c3cccc(C(F)(F)F)n3)c(C(C)(C)O)cc2n1 (10 µM),0
10,CCOc1cc(N2CCC(O)CC2)ccc1Nc1ncc2c(n1)N(C1CCCC1)CCC(=O)N2C (2.5 µM),0
11,CCC[C@H](C)Oc1nc(N)c2[nH]c(=O)n(CCCCCN3CCCCC3)c2n1 (10 µM),0
12,Fc1ccc(-c2nc3n(c2-c2ccncc2)CCS3)cc1 (10 µM),0
13,CC(ONC(=O)c1cc(C(F)(F)F)cc(C(F)(F)F)c1)C(=O)Nc1ccc(Cl)cc1 (stereo unspecified) (2.5 µM),0
14,O=C(Nc1ccccc1C(=O)NC1CCCCNC1=O)c1cc2ccccc2s1 (stereo unspecified) (10 µM),0
15,N#CC(=C(/N)Sc1ccccc1N)/C(C#N)=C(\N)Sc1ccccc1N (10 µM),0
16,Nc1ccc(O)c(C(=O)O)c1 [5-Aminosalicylic Acid] (10 µM),0
17,CNCc1ccccc1Sc1cccc2ccccc12 [IFN alpha-IFNAR-IN-1 (hydrochloride)] (10 µM),3
18,CCCCNc1ncc2c(-c3ccc(F)cc3)nn(CC3CCC(N)CC3)c2n1 (stereo unspecified) (2.5 µM),0
19,Cc1ncsc1-c1ccc(CNC(=O)[C@@H]2C[C@@H](O)CN2C(=O)[C@@H](NC(=O)COCCOc2ccc(-c3cc(Nc4ccc(OC(F)(F)F)cc4)ncn3)cc2)C(C)(C)C)cc1 (2.5 µM),1
20,Cn1cnc2c(F)c(Nc3ccc(Br)cc3F)c(C(=O)NOCCO)cc21 [Binimetinib] (10 µM),0
21,O=C1NC(=O)C(Cc2c[nH]c3c(Cl)cccc23)N1 (stereo unspecified) [Necroptosis-IN-1] (10 µM),0
22,C=CC(=O)N1CCC(c2ccc(C(N)=O)c(-c3ccc(Oc4ccccc4)cc3)n2)CC1 [Orelabrutinib] (2.5 µM),0
23,CN1C(=O)N[C@@H](Cc2c[nH]c3c(Cl)cccc23)C1=O [Necrostatin 2 (S enantiomer)] (10 µM),0
24,N#Cc1cc(-c2ccnc(Nc3ccc(N4CCOCC4)cc3)n2)ccc1OC1CCOCC1 (10 µM),0
25,COc1cccc(-c2cc(=O)c3ccccc3o2)c1N (10 µM),0
26,Nc1ccc(Sc2nc3ccccc3s2)c(Cl)c1 [KRAS inhibitor-9] (10 µM),0

# 2 compounds drawn at random from the list so far:
row,Structure (SMILES),number of time points
20,Cn1cnc2c(F)c(Nc3ccc(Br)cc3F)c(C(=O)NOCCO)cc21 [Binimetinib] (10 µM),0
14,O=C(Nc1ccccc1C(=O)NC1CCCCNC1=O)c1cc2ccccc2s1 (stereo unspecified) (10 µM),0
